Source: US20250002581A1
No constants are given. Whether binding was seen depends on the method and setting. A result given as binding can be weak or reduced; the word gives no strength.

What was measured:
Δ42PD1 (human) [1] = assay: flow cytometry on 293T-Δ42PD1 cells
Δ42PD1 (human) [2] = assay: flow cytometry on transfected 293T cells
Δ42PD-1-GFP [3] = assay: flow cytometry on transfected RPMI8866 B cells
Δ42PD-1-GFP [4] = assay: flow cytometry on RPMI8866 B cells transfected with Δ42PD-1-GFP
Δ42PD1 (human) [5] = assay: flow cytometry on 293T cells transfected with a PCDH plasmid expressing Δ42PD-1

B1: CH101-huIgG1(L/S) (antibody, not shown: a dimerising Fc or GST)
heavy: EVQLEESGPDLVKPSQSLSLTCTVTGYSITSGFAWHWLRQFPGNRLEWMGYIHYSGSTNYNPSLKSRISITRDTSKNQFFLQLNSVTTEDTATFYCARSDFWGQGTFVTVSS
light: DVVMTQTPLNLSVTFGQPVSISCTSSQSLLDRDGETFMNWLFQRPGQSPKRLIYLVSKLDFGVPDRFTGSGSGTDFTLKISRVEAEDLGIYYCWQGTHFPLTFGGGTKLEIKRTVAAPSVFIFPPSDEQLKSGTASVVCLLNNFYPREAKVQWKVDNALQSGNSQESVTEQDSKDSTYSLSSTLTLSKADYEKHKVYACEVTHQGLSSPVTKSFNRGEC
binding (Δ42PD1 (human) [1]): binds

B2: murine CH101 (antibody, V domains shown)
VH: B1 heavy
VL: DVVMTQTPLNLSVTFGQPVSISCTSSQSLLDRDGETFMNWLFQRPGQSPKRLIYLVSKLDFGVPDRFTGSGSGTDFTLKISRVEAEDLGIYYCWQGTHFPLTFGGGTKLEIK
binding (Δ42PD1 (human) [1]): binds

B3: anti-Δ42PD1 antibody CH34 (antibody, mouse IgG2b, kappa, V domains shown)
VH: EVKLVESGGGLVQPGGSRKLSCAASGFTFSDYGMAWVRQAPGKGPEWVAFISSLAYTIYYADTVTGRFTISRENAKNTLYLEMSSLRSEDTAMYYCARGGAGFAYWGQGTLVTVSA
VL: DIQMTQSSSYLSVSLGGRVTITCKASDHINNWLAWYQQKPGNAPRLLISGATSLETGVPSRFSGSGSGKDYTLSITSLQTEDVATYYCQQYWSTPWTFGGGTKLEIKR
binding (Δ42PD1 (human) [2]): binds | binding (Δ42PD-1-GFP [3]): binds | binding (Δ42PD-1-GFP [4]): binds | binding (Δ42PD1 (human) [5]): binds
